Assay results from patent US12661352B2, “Combination therapy with CLK/DYRK inhibitors and BCL2 inhibitors to treat leukemia” (Memorial Sloan-Kettering Cancer Center, priority 2023, dated 2026).
For at least one compound, name, drawing or mass did not settle the structure.

System: RNA splicing in MOLM-13 human AML cells
Assay: RNA-seq splicing and gene expression analysis in MOLM-13 cells
Format: cell-based
Conditions: monotherapy, 48 hours

With `CC1(C)CCC(CN2CCN(c3ccc(C(=O)NS(=O)(=O)c4ccc(NCC5CCOCC5)c([N+](=O)[O-])c4)c(Oc4cnc5[nH]ccc5c4)c3)CC2)=C(c2ccc(Cl)cc2)C1` [venetoclax] the “effect on RNA splicing” value was “no significant effects”.
